Binding data for one substance are collected here from article PMC3561343.

Sequences of proteins named here, by UniProt entry; tags and fusion partners are left off. A change or cut given only in a name is not applied to a line headed by its entry.
UniProt P55211: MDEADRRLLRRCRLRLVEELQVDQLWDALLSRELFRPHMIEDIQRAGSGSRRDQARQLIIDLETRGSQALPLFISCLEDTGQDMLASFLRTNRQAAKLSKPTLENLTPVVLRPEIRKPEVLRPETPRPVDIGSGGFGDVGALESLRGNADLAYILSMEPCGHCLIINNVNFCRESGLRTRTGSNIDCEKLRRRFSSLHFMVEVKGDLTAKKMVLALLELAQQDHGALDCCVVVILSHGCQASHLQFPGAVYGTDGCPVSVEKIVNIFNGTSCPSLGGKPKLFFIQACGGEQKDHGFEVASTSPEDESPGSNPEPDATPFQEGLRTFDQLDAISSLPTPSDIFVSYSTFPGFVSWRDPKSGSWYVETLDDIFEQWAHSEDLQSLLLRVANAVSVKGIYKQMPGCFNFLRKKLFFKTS

No constants are given. Whether binding was seen depends on the method and setting. Binding seen in cells or lysates may run through a third protein. Binding can be weak; no strength is given.

The target of this assay is VCP-Flag (valosin-containing protein, wild type) (UniProt P55072). In words: co-IP; AGS cells expressing VCP-Flag, Tri-mut VCP-Flag or empty vector, incubated with H. pylori (6 hr), with MG-132 or LY294002 pretreatment in some panels; lysate precipitated with anti-Flag M2 affinity gel 4 hr at 4°C; immunoblot of the precipitate.

On to Caspase9 (from UniProt P55211), for which the binding result is “binds”.
